Experimental data as given in patent publication US5559209A, “Regulator regions of G proteins” (The General Hospital Corporation, priority 1993, dated 1996).
Not every detail of the peptide structures is certain; ends, links or a residue may be inferred. Some compounds share one wording; it may come from a single statement. Where no end group is shown, it is not given here.

How the values were obtained:
[1] = system: somatostatin receptor/K+ channel linkage in human growth hormone-secreting pituitary adenoma cells; test: Somatostatin-induced K+ currents, whole cell patch clamp; assay type: cell-based; settings: 100 μM peptide in patch electrode solution, 100 nM somatostatin
Experimental: Inhibition Of somatostatin receptor function. It is known that somatostatin induces K^+ channel activation in a manner sensitive to pertussis toxin in human growth hormone-secreting tumors (Yamashita et al., Am. J. Physiol. 253:E28-E32, 1987). The effect of each of ACGi2, ACGi3, ACGs, ACGo1, and ACGo2 on somatostatin-induced K^+ currents in human pituitary cells was measured using the patch clamp technique, as described below.
Three human growth hormone-secreting pituitary adenomas were obtained at transsphenoidal surgery. The tissue was minced into small pieces (less than 1 mm in diameter) and was treated with 1000 units/ml dispase (Wako, Japan). These dissociated cells (≈10^5 cells/ml) were seeded onto 35-mm culture dishes. The monolayer cells were cultured at 37° C. under 5% CO2 in humidified air in Delbecco's modified Eagle's medium (DMEM) containing 10% heat-inactivated FCS. Electrophysiological experiments were done within 4 weeks after cell preparation.
A whole cell variation of the patch electrode voltage clamp technique was used to record membrane currents (Hamill et al., Pfluger Arch. 391:85-100, 1987). The patch electrode solution contained 95 mM potassium aspartate, 47.5 mM KCl, 1 mM MgCl2, 5.0 mM EGTA (potassium salt), 10 mM HEPES/KOH (pH 7.2), 2 mM ATP and 0.1 mM GTP. One of the anticouplone peptides, dissolved in distilled water, was mixed with the patch electrode solution to a final concentration of 100 μM, and was introduced into the interior of a pituitary cell in accordance with the published method. The extracellular medium, composed of 125 mM NaCl, 5 mM KCl, 1 mM MgCl2, 2.5 mM CaCl2, and 10 mM HEPES/NaOH (pH 7.4), was continuously perfused around the test cell during recording, using a peristaltic pump, and 10^-7 M somatostatin was introduced by changing the perfused medium. The liquid junction potential between the extracellular solution and the internal solution was directly measured using a 3M KCl electrode as a reference. The value of the liquid junction potential (-8 mV) was corrected in each experiment. Glass capillaries of 1.5 mm diameter with a filament were used to fabricate an electrode for the whole cell clamp. They were coated with Sylgard and fire-polished before use. The patch electrode resistance used in these studies was in the range of 5 to 8 M.OMEGA.. The seal resistance was over several tens of G.OMEGA.. A List EPC-7 amplifier was used for the membrane current and potential. Application of voltage or current pulse, data acquisition, and analysis were done with a Gateway 2000 computer using the pCLAMP program (Axon Instruments, CA). All experiments were performed at room temperature (22°-25° C.).
The intracellular solution that filled the inside of the pipet portion of the apparatus contained one of the following anticouplone peptides at 100 μM: ACGi2, ACGi3, ACGs, ACGo1, or ACGo2. The exterior of the cell was bathed with the extracellular solution containing 100 nM somatostatin while the outward K^+ current was monitored. In the absence of anticouplone peptides, somatostatin induces approximately 20 pA K^+ current over baseline. This somatostatin-induced current level is not affected by the presence of 100 μM ACGi3, ACGs, ACGo1, or ACGo2. ACGi2, however, abolished the somatostatin-induced increase, in K^+ current, reducing the measured current to the baseline level observed in the absence of somatostatin. […]

[2] = system: NRK (rat renal fibroblast) cells; test: TGFβ-induced fibronectin secretion, immunoblot; assay type: cell-based; settings: 100 μM peptide, 50 pM TGFβ, 12 hours
Excerpt: Inhibition of TGFβ-induced matrix formation. The secretion of matrix proteins (in particular, fibronectin) by kidney, lung and liver cells may lead to sclerosis of those organs. Transforming growth factor-β (TGFβ), which stimulates the secretion of fibronectin, may therefore contribute to such sclerosis. Since the TGFβ receptor is a Go2 -coupled receptor, the ability of ACGo2 to inhibit the TGFβ-induced stimulation of fibronectin secretion by NRK (rat renal fibroblast) cells (Ignotz and Massague, J. Biol. Chem. 261:4337-4345, 1986) was assayed.
NRK cells were cultured in RPMI 1640 supplemented with 5% FCS in a CO2 -incubator at 37° C. The medium was replaced every two days. Cells were regularly subcultured by trypsin-EDTA before reaching confluency. In the experiments described below, the cells were grown in monolayer to confluency in 6-well culture plates (Corning, N.Y.), then incubated for 12 hours with RPMI 1640 plus 0.5% FCS, and for a further 12 hours with RPMI 1640 plus 0.5% FCS in the presence or absence of 50 pM TGFβ (R & D System, Minneapolis, Minn.), to which was added 100 μM ACGi2, ACGs, ACGo2, or ACGq. The medium from each well was collected and frozen at -20° C. until assay. Fibronectin secreted into each sample of medium was assessed by immunoblot as follows:
Each medium sample was mixed with an equal volume of 2×concentrated Laemmli buffer (Laemmli, Nature 227:680-685, 1970), and boiled at 90° C. for 5 min. Proteins were separated by electrophoresis on 7.5% SDS-polyacrylamide gel, and then transferred to a polyvinylidene difluoride sheet (Immobilon-P, Millipore) by electroelution at 0°-4° C. with constant voltage of 75 V for 8 hours. After transfer, the sheet was incubated with PBS containing 5% bovine serum albumin and 2% skim milk (Defco) overnight at room temperature to block nonspecific protein binding. The sheet was then incubated with PBS containing 0.1% bovine serum albumin and an anti-fibronectin antibody (Chemicon International, CA) at a final concentration of 0.5 mg/ml for 3 hours at room temperature. After washing with ice-cold PBS/0.05% Tween 20 three times, the sheet was incubated with 0.04 units/ml of a horseradish peroxidase-conjugated anti-rabbit IgG (Sigma, A-8257) in PBS/0.1% bovine serum albumin for 3 hours at room temperature. The sheet was washed six times with ice-cold PBS/0.05% Tween 20, incubated with ECL (Enhanced ChemiLuminescence) solution (Amersham, RPN 2101) according to instructions for 1 min, and exposed on Kodak XAR5 film for 40-60 seconds.

| Sequence | effect on somatostatin-induced K+ current [1] | fibronectin secreted by cells exposed to TGFβ in the presence of peptide [2] |
| --- | --- | --- |
| NDCRDIIQRMHLRQY [ACGs, NDCRDIIQRMHLRQY] | not affected | significant amount of fibronectin is secreted |
| DAVTDVIIKNNLKDC [ACGi2, DAVTDVIIKNNLKDC] | abolished | significant amount of fibronectin is secreted |
